Measurements: PubChem BioAssay AID504834 (National Center for Advancing Translational Sciences (NCATS), 2011)
The campaign covered roughly 320,000 compounds. About 22,000 (6.9%) were called active. Inconclusive means that the source gave no clear call. Such entries were picked first, then a sample of the others. Calls come from the whole dose curve; as a rule, active = well fitted inhibition curve with a large enough effect; inconclusive = small, poorly fitted or top-dose-only effect, or another doubt; inactive = no such curve, though single readings can be large or run the other way. Potencies of inconclusive entries are doubtful fits and often do not repeat.

Assay: Primary qHTS for delayed death inhibitors of the malarial parasite plastid, 96 hour incubation
Settings: P. falciparum luciferase reporter growth; series mostly up to 28.7 µM
Procedure, shortened: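 Infected RBCs, 2% Hct / 0.05% parasitemia final; luciferase-reporter P. falciparum; cpd 96 h, 37 C, 5% CO2; luciferase detection reagent; luminescence.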
Potency is the fitted concentration of half-maximal effect.

SMILES	Potency
COc1cccc(N2C(=O)Nc3ccc(Br)cc3C2(O)C(=O)NCCCN(C)C)c1 (centres undefined)	inconclusive: 9.28 µM [inhibitor, single point]
COCCn1c(CN2CCN(c3cccc(Cl)c3)CC2)nc2c1c(=O)n(C)c(=O)n2C	inconclusive: 10.4 µM [inhibitor, partial curve, poor fit]
Cc1cc(C(C)(C)C)oc1C(=O)N(CC(=O)NC1CCCC1)c1cccc(C(F)(F)F)c1	active: 11.7 µM
Cn1nc(C(F)(F)F)c(-c2ccc(Br)cc2)c1NC(=O)c1ccco1	inconclusive: 5.22 µM [inhibitor, partial curve]
Clc1ccc(CCNc2ncnc3c2nnn3Cc2ccccc2)cc1	inconclusive: 9.28 µM [inhibitor, partial curve, poor fit]
O=C1CC(N2CCN(c3ccccc3)CC2)C(=O)N1c1cccc(Br)c1 (centres undefined)	inconclusive: 0.522 µM [inhibitor, full curve, poor fit]
COc1ccccc1Sc1ccccc1CC(C)N (centres undefined)	inconclusive: 14.7 µM [inhibitor, single point]
COC(=O)[C@H]1C[C@@H]1[C@H](NC(=O)c1cc(C)on1)c1ccccc1	inconclusive: 0.0738 µM [inhibitor, full curve, poor fit]
CCOC(=O)c1c(NC(=O)CSc2ncn[nH]2)sc(C(=O)NC)c1C	inconclusive: 10.4 µM [inhibitor, partial curve]
Cn1nc(C(F)(F)F)c(C(=O)Nc2ccc(F)cc2F)c1Sc1cccc(C(F)(F)F)c1	active: 8.28 µM
COc1ccc(CCC(=O)OCC(=O)Nc2ccc3[nH]c(=O)[nH]c3c2)cc1	inactive
Cn1cnnc1Sc1ccc(C(=O)NCCC23CC4CC(CC(C4)C2)C3)cc1[N+](=O)[O-]	inconclusive: 18.5 µM [inhibitor, single point]
COCCN(C(=O)CCC(=O)Nc1ccccn1)C(C(=O)NCCC(C)C)c1ccc(OC)cc1 (centres undefined)	active: 0.522 µM
Cc1cc(N2C(=O)C(O)=C(C(=O)c3cc4ccccc4o3)C2c2ccc([N+](=O)[O-])cc2)no1 (centres undefined)	inconclusive: 14.7 µM [inhibitor, single point]
O=C(NC(=S)NCc1cccnc1)c1ccc([N+](=O)[O-])cc1	inactive
O=C(O)CNS(=O)(=O)c1ccc(-c2ccccc2)cc1	inactive
COc1ccc(OC)c(NC(=O)Cc2csc(NC(=O)Nc3ccccc3OC)n2)c1	inactive
Cn1c(=O)cc(OCC(=O)NCc2cccnc2)c2ccccc21	inconclusive: 0.0828 µM [inhibitor, full curve, poor fit]
COc1ccc(N=C2SC(CC(=O)Nc3ccc(F)cc3)C(=O)N2Cc2ccco2)cc1 (centres undefined)	inconclusive: 18.5 µM [inhibitor, single point]
Cn1c2ccccc2c2cc(/C=N/NC(=O)c3ccccc3F)ccc21	inconclusive: 18.5 µM [inhibitor, single point]
COc1ccc(/C=C\C(=O)NCC(=O)N/N=C/c2ccc(O)cc2O)cc1	inactive
Fc1ccccc1-c1nc(-c2cnccc2C(F)(F)F)no1	inconclusive: 10.4 µM [inhibitor, partial curve, poor fit]
CCc1cc(=O)oc2c3c(cc(OCC(=O)NCCC(=O)O)c12)OC(C)(C)CC3	inconclusive: 2.33 µM [inhibitor, full curve]

SMILES	Potency
O=C(O)CC1(CC(=O)NCc2ccncc2)CCCCC1	inconclusive: 16.5 µM [inhibitor, partial curve, poor fit]
CCC(=O)Nc1sc(Cc2ccccc2)c(C)c1C(N)=O	inconclusive: 3.29 µM [inhibitor, full curve]
CCN1CCN(c2nc3c(c(=O)[nH]c(=O)n3C)n2CCCSc2ncccn2)CC1	inconclusive: 0.0023 µM [inhibitor, full curve, poor fit]
COc1ccccc1NC(=O)c1cc2cc(Br)ccc2oc1=N	inconclusive: 11.7 µM [inhibitor, single point]
Cc1ccc(OCCNC(=O)Cn2cnc3c(=O)n(C)c(=O)n(C)c32)cc1C	inactive
COCCCC1CCN(C(=O)c2cc(COc3cc(C)ccc3C)on2)CC1	inconclusive: 11.7 µM [inhibitor, partial curve]
Cc1ccc(S(=O)(=O)NCCc2ccncc2)cc1[N+](=O)[O-]	inconclusive: 6.57 µM [inhibitor, partial curve, poor fit]
CCCS(=O)(=O)N1CCCC(C(=O)NCCN2CCC(Cc3ccccc3)CC2)C1 (centres undefined)	inconclusive: 3.29 µM [inhibitor, partial curve, poor fit]
CO/N=C/C(C#N)=C/c1cc(C(=O)c2ccccc2)cn1C	active: 2.94 µM
COc1ccc(OC)c(NC(=O)c2ccc(CSc3nnc(C)s3)cc2)c1	inactive
COc1cccc(/C=C2\SC(=S)N(CCCC(=O)N(CCO)c3ccccc3)C2=O)c1	active: 1.85 µM
COc1cc(OC)cc(-c2c(-c3cccs3)c3cc(-c4ccc(OC)nc4)ccc3n2C)c1	inconclusive: 13.1 µM [inhibitor, single point]
CCc1nnc(NC(=O)CSc2nc(N)c(NC(=O)c3ccc(OC)cc3)c(=O)[nH]2)s1	inactive
O=C(CN1C(=O)S/C(=C\c2cccs2)C1=O)Nc1ccc(O)cc1C(=O)O	inconclusive: 18.5 µM [inhibitor, single point]
O=S(=O)(Oc1ccccc1C(=S)N1CCOCC1)c1ccc(Cl)cc1	inactive
Fc1cccc(Cl)c1CNCc1cccnc1	active: 11.7 µM
CCCSS/C(CCO)=C(/C)N(C=O)Cc1cnc(C)nc1N	inconclusive: 6.75 µM [inhibitor, partial curve]
Cc1ccccc1-n1c(-c2ccc(Cl)cc2)cnc1SCC(=O)NC1CCS(=O)(=O)C1 (centres undefined)	inconclusive: 11.7 µM [inhibitor, single point]
Cn1cc(CNC(=O)c2cc(COc3ccc4c(c3)CCCC4)on2)cn1	inconclusive: 18.5 µM [inhibitor, single point]
CCOC(=O)C1CCCN(S(=O)(=O)c2cc3[nH]c(=O)c(=O)[nH]c3cc2C)C1 (centres undefined)	inconclusive: 7.38 µM [inhibitor, partial curve, poor fit]
COc1ccc(OC)c(N2Cc3ccccc3C2=N)c1	active: 5.86 µM
Cc1cc(Cl)ccc1OCC(=O)NNC(=O)C1CCN(c2ncnc3sc(C)c(C)c23)CC1	inactive
Cc1ccc(OCC(=O)N/N=C\c2cn(Cc3ccccc3)c3ccccc23)cc1C	inconclusive: 18.5 µM [inhibitor, single point]

An excerpt of the results above, for reference:
SMILES	Potency
Fc1cccc(Cl)c1CNCc1cccnc1	active: 11.7 µM
CCCSS/C(CCO)=C(/C)N(C=O)Cc1cnc(C)nc1N	inconclusive: 6.75 µM [inhibitor, partial curve]
Cc1ccccc1-n1c(-c2ccc(Cl)cc2)cnc1SCC(=O)NC1CCS(=O)(=O)C1 (centres undefined)	inconclusive: 11.7 µM [inhibitor, single point]
Cn1cc(CNC(=O)c2cc(COc3ccc4c(c3)CCCC4)on2)cn1	inconclusive: 18.5 µM [inhibitor, single point]
CCOC(=O)C1CCCN(S(=O)(=O)c2cc3[nH]c(=O)c(=O)[nH]c3cc2C)C1 (centres undefined)	inconclusive: 7.38 µM [inhibitor, partial curve, poor fit]

Remaining list, next part.

SMILES	Potency
COc1cc(OC)c2c(-c3ccccc3)cc(=O)oc2c1C(CC(=O)N1CCN(c2ccccc2)CC1)c1ccc(N(C)C)cc1 (centres undefined)	inconclusive: 1.65 µM [inhibitor, full curve]
CC(C)c1nnc(NC(=O)c2cccc(NC(=O)C(F)(F)F)c2)s1	inactive
Cc1[nH]n(-c2ccccc2)c(=O)c1/C=N\NC(=O)C1COc2ccccc2O1 (centres undefined)	inconclusive: 13.1 µM [inhibitor, single point]
C/C(CC(=O)Nc1c(C)cc(C)cc1C)=N\NC(=O)c1cnccn1	inconclusive: 9.28 µM [inhibitor, partial curve, poor fit]
COc1cc(=O)[nH]c(SCC(=O)Nc2ccc3ccccc3c2)n1	inconclusive: 18.5 µM [inhibitor, partial curve, poor fit]
O=C(c1cc2ccccc2o1)N1CCN(S(=O)(=O)c2ccc(Cl)s2)CC1	active: 11.7 µM
O=C(c1ccc(Cl)c(Cl)c1)N1CCC(=O)N(C(COCc2cccc(Cl)c2)Cc2ccccc2)CC1 (centres undefined)	inactive
Cc1ccc(C)c(S(=O)(=O)N2CCN(C(=O)CSc3ccccc3F)CC2)c1	active: 14.7 µM
O=S(=O)(CCN1C=CC(C(F)(F)F)=NCC1)c1ccc(Cl)cc1Cl	inactive
CCOC(=O)C1=C(C)NC(=S)NC1c1ccc(OCC(=O)N2CCCCCC2)cc1 (centres undefined)	inconclusive: 9.28 µM [inhibitor, single point]
COCCN(C(=O)c1ccc(OC2CCN(S(=O)(=O)N(C)C)CC2)cc1)C(C)C	inconclusive: 13.1 µM [inhibitor, single point]
Cc1ccc(CNC(=O)/C=C/C(=O)O)cc1	inactive
Cc1ccc(C(=O)NC(=C(Cl)Cl)S(=O)(=O)c2ccccc2)cc1	inactive
C/C(=N/NS(=O)(=O)c1ccc(C)cc1)c1c(O)c2ccccc2oc1=O	inactive
C=CCNC(=O)CCCOc1ccc(C)cc1	inconclusive: 5.86 µM [inhibitor, partial curve]
CC(NC(=O)c1ccccc1)C(=O)OCn1nnc2ccccc2c1=O (centres undefined)	inconclusive: 18.5 µM [inhibitor, single point]
CC(C)CC(OC(=O)c1ccco1)C(=O)NC1CCCC1 (centres undefined)	inactive
COc1ccc(S(=O)(=O)N2CCCCCC2)cc1C(=O)N(C)Cc1ccccc1F	inconclusive: 13.1 µM [inhibitor, single point]
O=C(Nc1cccc(S(=O)(=O)NCc2ccco2)c1)c1cc(-c2ccc(F)cc2)nc2ccccc12	active: 11.7 µM
Cc1[nH]c(C)c(S(=O)(=O)NCc2ccc(Cl)cc2)c1C(=O)N1CCCC1	inactive
O=C(NNC(=O)c1ccc(NC(=O)C2CC2)cc1)c1ccc(F)cc1	inactive
Cc1sc2ncnc(NCCCO)c2c1C	inconclusive: 11.7 µM [inhibitor, partial curve]
COc1ccc(-c2[nH]ncc2-c2nc(C)cs2)c(O)c1	inactive
